Literature values as cited in patent US8575183B2, “Heterocyclic compounds and their uses” (priority 2010, dated 2013).
For at least one compound, name, drawing or mass did not settle the structure.

Columns and labels:
[1] = tested on: Class I PI 3-kinases; settings: read-out: IC50 against each of these PI 3-kinases; cited from earlier work
[2] = tested on: neutrophil migration; settings: cited from earlier work
[3] = tested on: neutrophil superoxide release; settings: neutrophils; cited from earlier work

O=c1cc(N2CCOCC2)oc2c(-c3ccccc3)cccc12 [LY294002]
IC50 [1]: ~1000 nM | neutrophil migration [2]: block | superoxide release [3]: block
